Experimental data taken from patent USRE35053E, “Amines useful in producing pharmaceutically active CNS compounds” (The Upjohn Company, priority 1992, dated 1995).
Structures can show the parent of a compound that is named as a salt. Some results were stated once for a whole list of compounds, not compound by compound. For at least one compound, name, drawing or mass did not settle the structure.

System: conjugated diene formation in rat brain synaptosomes
Assay: Conjugated diene formation assay (lipid peroxidation)
Format: biochemical
Conditions: 100 μM (or less) of the drug, active = 50% inhibition or more
Method: The formation of conjugated dienes as assayed by Braughler. […] Bucher, Fund.
Synaptosomal suspension (10 μl) is added to 1 ml of physiological (normal) saline containing 1% Lubrol PX (Sigma Chemical Co. St. Louis, Mo.). […] The reaction is started by the rapid addition of 200 μM ferrous ammonium sulfate prepared in argon-purged water. The sample is rapidly mixed and the change in absorbance at 232nm is followed in a Gilford Response Spectrophotometer equipped with a rapid sampler. Due to the rapidity of the reaction, rapid addition of the iron, rapid mixing and sampling are obligatory to the accuracy of the assay. For best results absorbance readings of one/sec should be started within 5 sec following the addition of iron. The initial linear rate of absorbance change during the first 30 sec of reaction are compared with the rate of a reaction containing all reagents except synaptosomes. The difference in rates is the rate of conjugated diene formation. Rates with drug are compared to rates obtained in the absence of drug and the % inhibition is calculated.

Row | Structure (SMILES) | inhibition of conjugated diene formation
1 | C[C@]12CCC(=O)C=C1CC[C@@H]1C2=CC[C@@]2(C)[C@H]1CC[C@]2(O)C(=O)CN1CCN(C(=O)Nc2cccc(Cl)c2)CC1 [Example 10, 17α-Hydroxy-21-[4-[[(3-chlorophenyl)amino]carbonyl]-1-piperazinyl]pregna-4,9(11)-diene-3,20-dione] | demonstrate such activity
2 | CN1CCN(c2cc(N3CCN(CC(=O)[C@@]4(O)CC[C@H]5[C@@H]6CCC7=CC(=O)CC[C@]7(C)C6=CC[C@@]54C)CC3)nc(N3CCN(C)CC3)n2)CC1.CS(=O)(=O)O.O [Example 19, 17α-Hydroxy-21-[4-[2,6-bis(4-methyl 1 piperazinyl)-4-pyrimidinyl]-1-piperazinyl]pregna-4,9(11)-diene-3,20-dione methanesulfonate hydrate] | demonstrate such activity
3 | C[C@]12CCC(=O)C=C1CC[C@@H]1[C@@H]2C(=O)C[C@@]2(C)[C@H]1CC[C@]2(O)C(=O)CN1CCN(c2ccccn2)CC1 [Example 20] | demonstrate such activity
4 | C[C@H]1C[C@@H]2[C@H]([C@@H](O)C[C@@]3(C)[C@H]2CC[C@]3(O)C(=O)CN2CCN(c3ccccn3)CC2)[C@@]2(C)C=CC(=O)C=C12 [Example 21, 11β,17α-dihydroxy-6α-methyl-21-[4-(2-pyridinyl)-1-piperazinyl]pregna-1,4-diene-3,20-dione] | demonstrate such activity
5 | COc1cccc(N2CCN(CC(=O)[C@@]3(O)CC[C@H]4[C@@H]5CCC6=CC(=O)CC[C@]6(C)C5=CC[C@@]43C)CC2)n1.CS(=O)(=O)O [Example 22, 17α-hydroxy-21-[4-(6-methoxy-2-pyridinyl)-1-piperazinyl]pregna-4,9(11)-diene-3,20-dione monomethanesulfonate] | demonstrate such activity
6 | CN(CCN(C)c1ccccn1)CC(=O)[C@@]1(O)CC[C@H]2[C@@H]3CCC4=CC(=O)CC[C@]4(C)C3=CC[C@@]21C.Cl.Cl [Example 24, 17α-hydroxy-21-[methyl[2-(methyl-2-pyridinylamino)ethyl]amino]pregna-4,9(11)-diene-3,20-dione dihydrochloride] | demonstrate such activity
7 | C[C@]12C=CC(=O)C=C1CC[C@@H]1[C@@H]2[C@@H](O)C[C@@]2(C)[C@H]1CC[C@]2(O)C(=O)CN1CCN(c2ccccn2)CC1 [Example 25, 11β,17α-dihydroxy-21-[4-(2-pyridinyl)-1-piperazinyl]-pregna-1,4-diene-3,20-dione dihydrochloride] | demonstrate such activity
8 | C[C@]12C=CC(=O)C=C1CC[C@@H]1[C@@H]2[C@@H](O)C[C@@]2(C)[C@H]1CC[C@]2(O)C(=O)CN1CCN(c2ccc(F)cc2)CC1 [Example 26, 11β, 17α-dihydroxy-21-[4-(4-fluorophenyl)-1-piperazinyl]pregna-1,4-diene-3,20-dione dihydrochloride] | demonstrate such activity
9 | COc1ccc(N2CCN(CC(=O)[C@@]3(O)CC[C@H]4[C@@H]5CCC6=CC(=O)C=C[C@]6(C)[C@H]5[C@@H](O)C[C@@]43C)CC2)cc1 [Example 27, 11β,17α-dihydroxy-21-[4-(4-methoxyphenyl)-1-piperazinyl]pregna-1,4-diene-3,20-dione dihydrochloride] | demonstrate such activity
10 | CC(C)(C)CC(=O)O[C@@H]1C[C@@]2(C)[C@@H](CC[C@]2(O)C(=O)CN2CCN(c3ccccn3)CC2)[C@@H]2CCC3=CC(=O)CC[C@]3(C)[C@H]21.Cl.Cl [Example 28] | demonstrate such activity
11 | COc1ccc(N2CCN(CC(=O)[C@@]3(O)CC[C@H]4[C@@H]5CCC6=CC(=O)CC[C@]6(C)[C@H]5[C@H](O)C[C@@]43C)CC2)cc1 [Example 30, 11α,17α-dihydroxy-21-[4-(4-methoxyphenyl)-1-piperazinyl]pregn-4-ene-3,20-dione dihydrochloride] | demonstrate such activity
12 | C[C@]12CCC(=O)C=C1CC[C@@H]1[C@@H]2[C@H](OC(=O)c2ccco2)C[C@@]2(C)[C@H]1CC[C@]2(O)C(=O)CN1CCN(c2ccccn2)CC1 [Example 31, 11α,17α-Dihydroxy-21-[4-(2-pyridinyl)-1-piperazinyl]pregn-4-ene-3,20-dione 11-(2-furanylcarbonyl) dihydrochloride] | demonstrate such activity
13 | COc1ccc(N2CCN(CC(=O)[C@@]3(O)CC[C@H]4[C@@H]5CCC6=CC(=O)CC[C@]6(C)[C@H]5[C@H](OC(=O)CC(C)(C)C)C[C@@]43C)CC2)cc1 [Example 32, 11α,17α-dihydroxy-21-[4-(4-methoxyphenyl)-1-piperazinyl]pregn-4-ene-3,20-dione 11-(3,3-dimethyl 1-butyrate) dihydrochloride] | demonstrate such activity
14 | COc1ccc(N2CCN(CC(=O)[C@@]3(O)CC[C@H]4[C@@H]5C[C@H](C)C6=CC(=O)C=C[C@]6(C)[C@H]5[C@@H](O)C[C@@]43C)CC2)cc1 [Example 33, 11β,17α-dihydroxy-21-[4-(4-methoxyphenyl)-1-piperazinyl]-6α-methylpregna-1,4-diene-3,20-dione dihydrochloride] | demonstrate such activity
15 | COc1ccc(CCNCC(=O)[C@@]2(O)CC[C@H]3[C@@H]4C[C@H](C)C5=CC(=O)C=C[C@]5(C)[C@H]4[C@@H](O)C[C@@]32C)cc1OC [Example 34, 11β,17α-dihydroxy-21-[[2-(3,4-dimethoxyphenyl)ethyl]-amino]-6α-methylpregna-1,4-diene-3,20-dione hydrochloride] | demonstrate such activity
16 | C[C@]12C[C@@H](O)[C@H]3[C@@H](CCC4=CC(=O)CC[C@@]43C)[C@@H]1CC[C@@H]2C(=O)CN1CCN(c2ccccn2)CC1.Cl.Cl [Example 36, 11α-hydroxy-21-[4-(2-pyridinyl)-1-piperazinyl]pregn-4-ene-3,20-dione, dihydrochloride] | demonstrate such activity
17 | COc1ccc(CCN(CC(=O)[C@@]2(O)CC[C@H]3[C@@H]4CCC5=CC(=O)CC[C@]5(C)C4=CC[C@@]32C)Cc2cc(OC)c(OC)c(OC)c2)cc1OC [Example 37, 17α-hydroxy-21-[[2-(3,4-dimethoxyphenyl)ethyl]-[3,4,5-trimethoxyphenyl)methyl]amino]pregna-4,9(11)diene-3,20-dione hydrochloride] | demonstrate such activity
18 | COc1ccc(CC(C)NCC(=O)[C@@]2(O)CC[C@H]3[C@@H]4CCC5=CC(=O)CC[C@]5(C)C4=CC[C@@]32C)c(OC)c1 (stereo partly drawn) [Example 38, 17α-hydroxy-21-[[2-(2,4-dimethoxyphenyl)-1-methylethyl]amino]pregna-4,9(11)-diene-3,20-dionehydrochloride] | demonstrate such activity
19 | C[C@]12CCC(=O)C=C1CC[C@@H]1C2=CC[C@@]2(C)[C@H]1CC[C@]2(O)C(=O)CN1CCCCC1C(=O)O (stereo partly drawn) [Example 39, 21-[1-(2-carboxy)piperidinyl]-17α-hydroxypregna-4.9(11)-diene-3,20-dione] | demonstrate such activity
20 | CCN(CC)c1cc(N2CCN(CC(=O)[C@@]3(O)CC[C@H]4[C@@H]5CCC6=CC(=O)CC[C@]6(C)[C@H]5CC[C@@]43C)CC2)nc(N(CC)CC)n1 [Example 53, 21-[4-[2,-bis(diethylamino)-4-pyrimidinyl]-1-piperazinyl]-17α-hydroxypregn-4-ene-3,20-dione] | demonstrate such activity
21 | C[C@]12CCC(=O)C=C1CC[C@@H]1C2=CC[C@@]2(C)[C@H]1CC[C@]2(O)C(=O)CN1CCN(Cc2ccccn2)CC1 [Example 54, 17α-hydroxy-21-[4-(2-pyridinylmethyl)-1-piperazinyl]-pregna-4,9(11)-diene-3,20-dione(E)-2-butenedioate 1:1 salt] | demonstrate such activity
22 | C[C@]12CCC(=O)C=C1CC[C@@H]1C2=CC[C@]2(C)C(C(=O)CN3CCN(c4ccccn4)CC3)=CC[C@@H]12 [Example 58, 21-[4-(2-pyridinyl)-1-piperazinyl]pregna-4,9(11),16-triene-3,20-dione hydrochloride with trichloromethane hydrate(4:8:3:4)] | demonstrate such activity
23 | C[C@]12C=CC(=O)C=C1CC[C@@H]1[C@@H]2C(=O)C[C@@]2(C)[C@H]1CC[C@]2(O)C(=O)CN1CCN(c2ccccn2)CC1 [Example 59, 17α-hydroxy-21-[4-(2-pyridinyl)-1-piperazinyl]-pregna-1,4-diene-3,11,20-trione hydrochloride hydrate (2:1:3)] | demonstrate such activity
24 | C=CCNc1nc(NCC=C)nc(N2CCN(CC(=O)[C@@]3(O)CC[C@H]4[C@@H]5CCC6=CC(=O)CC[C@]6(C)C5=CC[C@@]43C)CC2)n1.Cl.Cl.O [Example 60, 17α-hydroxy-21-[4-[4,6-bis(2-propenylamino)-1,3,5-triazin-2-yl]-1-piperazinyl]pregna-4,9(11)-diene-3,20-dione dihydrochloride hydrate] | demonstrate such activity
25 | C[C@]12CCC(=O)C=C1CC[C@@H]1C2=CC[C@@]2(C)[C@H]1CC[C@]2(O)C(=O)CN1CCN(Cc2ncccc2O)CC1 [Example 61, 17α-hydroxy-21-[4[(3-hydroxy-2-pyridinyl)methyl]-1-piperazinylpregna-4,9(11)-diene-3,20-dione(E)-2-butenedioate (1:1) salt] | demonstrate such activity
